# Assay results taken from the supplement of paper PMC6411743.
# ± gives the standard deviation of the averaged measurements. The entries are a selection whose mix differs from that of the whole data set.
# Columns and labels:
# Assay in all cases: NP40-soluble protein abundance relative to vehicle (solubility fold change) (ratio); higher = more soluble protein in presence of AMP-PNP
# [1] = biological target: T1, UniProt Q9BXJ9; details: concentration: 10mM
# T1 sequence (whole entry): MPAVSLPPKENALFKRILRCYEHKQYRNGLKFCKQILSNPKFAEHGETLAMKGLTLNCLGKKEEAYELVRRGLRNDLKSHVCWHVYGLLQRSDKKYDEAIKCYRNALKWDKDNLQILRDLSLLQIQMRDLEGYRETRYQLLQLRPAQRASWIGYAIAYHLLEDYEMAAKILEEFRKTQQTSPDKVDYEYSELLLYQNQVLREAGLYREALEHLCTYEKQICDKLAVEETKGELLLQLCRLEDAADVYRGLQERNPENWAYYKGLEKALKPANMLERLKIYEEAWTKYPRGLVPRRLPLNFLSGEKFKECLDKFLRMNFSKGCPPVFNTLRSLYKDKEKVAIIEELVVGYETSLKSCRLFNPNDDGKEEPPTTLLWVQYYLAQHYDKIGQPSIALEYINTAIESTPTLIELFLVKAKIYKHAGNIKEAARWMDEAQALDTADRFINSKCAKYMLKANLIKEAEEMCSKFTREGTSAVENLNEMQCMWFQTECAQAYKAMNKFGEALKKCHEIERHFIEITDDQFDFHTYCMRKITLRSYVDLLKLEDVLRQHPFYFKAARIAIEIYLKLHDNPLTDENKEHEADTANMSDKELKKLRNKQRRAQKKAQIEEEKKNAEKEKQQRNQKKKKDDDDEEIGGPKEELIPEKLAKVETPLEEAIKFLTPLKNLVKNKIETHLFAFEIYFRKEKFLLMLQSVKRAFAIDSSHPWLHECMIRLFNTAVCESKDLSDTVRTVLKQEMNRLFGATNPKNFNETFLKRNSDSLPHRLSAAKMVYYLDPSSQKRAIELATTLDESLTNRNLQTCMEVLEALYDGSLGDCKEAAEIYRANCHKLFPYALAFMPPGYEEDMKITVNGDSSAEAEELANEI
# Method in brief: (§1)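 Data come from three independent experiments in which Dounce-homogenised Jurkat crude lysate was treated at eight concentrations from 0.1 to 10 mM. Treatment ran 10 min at room temperature and then 3 min at 37 °C, after which 0.8% NP40 and benzonase were added for 60 min at 4 °C before ultracentrifugation. The supernatant underwent TMT labelling and LC-MS/MS, and vsn-normalised intensities were expressed as fold change against the detergent-processed vehicle in each replicate.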
# [2] = biological target: T2, UniProt Q9BXP5-3|Q9BXP5-4
# T2 sequence (whole entry): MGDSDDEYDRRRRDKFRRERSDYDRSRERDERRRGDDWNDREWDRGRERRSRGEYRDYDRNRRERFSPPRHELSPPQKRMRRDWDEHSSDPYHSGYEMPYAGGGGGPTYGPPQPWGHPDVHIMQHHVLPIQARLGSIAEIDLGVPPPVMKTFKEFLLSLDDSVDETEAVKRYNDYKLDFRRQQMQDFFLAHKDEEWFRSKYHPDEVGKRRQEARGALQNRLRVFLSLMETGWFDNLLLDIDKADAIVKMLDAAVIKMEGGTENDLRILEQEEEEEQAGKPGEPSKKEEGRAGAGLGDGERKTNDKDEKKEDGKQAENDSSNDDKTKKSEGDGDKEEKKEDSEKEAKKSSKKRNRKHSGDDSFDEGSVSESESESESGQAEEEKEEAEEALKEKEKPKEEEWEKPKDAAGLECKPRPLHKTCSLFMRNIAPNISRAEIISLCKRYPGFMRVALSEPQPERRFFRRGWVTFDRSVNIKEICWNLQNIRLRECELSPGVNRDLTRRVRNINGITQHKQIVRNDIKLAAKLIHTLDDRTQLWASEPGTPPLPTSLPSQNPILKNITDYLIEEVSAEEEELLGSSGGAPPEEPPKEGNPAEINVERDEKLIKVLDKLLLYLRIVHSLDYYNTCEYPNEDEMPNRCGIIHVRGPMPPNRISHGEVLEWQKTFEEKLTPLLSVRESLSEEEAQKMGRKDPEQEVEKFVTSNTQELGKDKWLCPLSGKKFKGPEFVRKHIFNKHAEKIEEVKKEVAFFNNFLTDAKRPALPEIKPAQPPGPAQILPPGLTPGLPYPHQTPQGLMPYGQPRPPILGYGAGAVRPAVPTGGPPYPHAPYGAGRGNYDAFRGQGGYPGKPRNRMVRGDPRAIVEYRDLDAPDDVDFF
# Method in brief: as §1
# [3] = biological target: T3, UniProt Q9BY77 and related entries
# T3 sequence (whole entry): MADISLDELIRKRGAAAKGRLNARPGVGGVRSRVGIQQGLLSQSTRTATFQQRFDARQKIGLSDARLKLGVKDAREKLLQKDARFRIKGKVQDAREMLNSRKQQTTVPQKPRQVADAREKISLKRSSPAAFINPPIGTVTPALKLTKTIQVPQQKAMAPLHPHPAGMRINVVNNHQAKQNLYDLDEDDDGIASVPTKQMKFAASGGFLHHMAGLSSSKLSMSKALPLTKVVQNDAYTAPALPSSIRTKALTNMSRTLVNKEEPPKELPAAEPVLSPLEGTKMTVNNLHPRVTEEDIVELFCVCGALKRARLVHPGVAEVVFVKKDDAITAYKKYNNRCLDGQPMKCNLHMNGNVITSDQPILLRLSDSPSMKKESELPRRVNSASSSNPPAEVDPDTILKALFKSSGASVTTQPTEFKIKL
# Method in brief: as §1
# [4] = biological target: T4, UniProt Q9BZ67-2
# T4 sequence (whole entry): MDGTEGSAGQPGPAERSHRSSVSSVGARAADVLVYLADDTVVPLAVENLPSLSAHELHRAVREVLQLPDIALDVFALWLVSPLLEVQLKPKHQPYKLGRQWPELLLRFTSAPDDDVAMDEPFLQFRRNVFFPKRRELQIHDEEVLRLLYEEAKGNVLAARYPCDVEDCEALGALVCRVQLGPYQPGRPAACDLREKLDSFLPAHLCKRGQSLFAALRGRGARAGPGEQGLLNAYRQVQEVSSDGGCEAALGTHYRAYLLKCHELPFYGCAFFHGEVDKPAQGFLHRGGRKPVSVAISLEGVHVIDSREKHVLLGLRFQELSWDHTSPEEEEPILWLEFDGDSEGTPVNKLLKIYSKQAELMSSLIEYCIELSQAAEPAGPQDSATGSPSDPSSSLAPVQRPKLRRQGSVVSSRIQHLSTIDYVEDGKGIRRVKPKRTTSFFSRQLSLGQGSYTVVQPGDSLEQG
# Method in brief: as §1
# [5] = biological target: T5, VRK1 (UniProt Q99986)
# T5 sequence (whole entry): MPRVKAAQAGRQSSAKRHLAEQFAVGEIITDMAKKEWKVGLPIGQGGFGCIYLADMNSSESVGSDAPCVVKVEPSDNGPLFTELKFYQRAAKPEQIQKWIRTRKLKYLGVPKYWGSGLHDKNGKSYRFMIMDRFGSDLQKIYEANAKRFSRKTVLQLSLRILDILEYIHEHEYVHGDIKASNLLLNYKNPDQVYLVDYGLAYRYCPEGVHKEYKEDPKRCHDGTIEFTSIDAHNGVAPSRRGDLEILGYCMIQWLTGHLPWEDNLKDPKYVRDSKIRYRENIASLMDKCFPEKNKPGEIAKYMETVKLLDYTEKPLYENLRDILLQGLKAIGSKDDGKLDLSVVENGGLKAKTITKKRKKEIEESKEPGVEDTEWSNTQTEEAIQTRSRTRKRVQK
# Method in brief: as §1
compound,measurement,setting,value
Nc1ncnc2c1ncn2[C@@H]1O[C@H](COP(=O)(O)OP(=O)(O)NP(=O)(O)O)[C@@H](O)[C@H]1O [adenylyl imidodiphosphate],NP40-soluble protein abundance,[1],1.04 ± 0.051
same,NP40-soluble protein abundance,[2]; concentration: 1mM,1.04 ± 0.049
same,NP40-soluble protein abundance,[2]; concentration: 2mM,1.09 ± 0.09
same,NP40-soluble protein abundance,[2]; concentration: 4mM,1.1 ± 0.068
same,NP40-soluble protein abundance,[2]; concentration: 6mM,1.199 ± 0.0062
same,NP40-soluble protein abundance,[2]; concentration: 8mM,1.23 ± 0.025
same,NP40-soluble protein abundance,[2]; concentration: 10mM,1.24 ± 0.072
same,NP40-soluble protein abundance,[3]; concentration: 1mM,1 ± 0.038
same,NP40-soluble protein abundance,[3]; concentration: 2mM,1.06 ± 0.064
same,NP40-soluble protein abundance,[3]; concentration: 4mM,1.04 ± 0.042
same,NP40-soluble protein abundance,[3]; concentration: 6mM,1.17 ± 0.016
same,NP40-soluble protein abundance,[3]; concentration: 8mM,1.24 ± 0.028
same,NP40-soluble protein abundance,[3]; concentration: 10mM,1.37 ± 0.081
same,NP40-soluble protein abundance,[4]; concentration: 1mM,0.994 ± 0.024
same,NP40-soluble protein abundance,[4]; concentration: 2mM,0.99655 ± 0.0008
same,NP40-soluble protein abundance,[4]; concentration: 4mM,0.992 ± 0.02
same,NP40-soluble protein abundance,[4]; concentration: 6mM,0.992 ± 0.037
same,NP40-soluble protein abundance,[4]; concentration: 8mM,1.01 ± 0.025
same,NP40-soluble protein abundance,[4]; concentration: 10mM,0.9867 ± 0.0026
same,NP40-soluble protein abundance,[5]; concentration: 1mM,1.08 ± 0.036
same,NP40-soluble protein abundance,[5]; concentration: 2mM,1.1 ± 0.078
same,NP40-soluble protein abundance,[5]; concentration: 4mM,1.22 ± 0.03
same,NP40-soluble protein abundance,[5]; concentration: 6mM,1.43 ± 0.061
same,NP40-soluble protein abundance,[5]; concentration: 8mM,1.51 ± 0.11
same,NP40-soluble protein abundance,[5]; concentration: 10mM,1.56 ± 0.1

# Given bar-delimited: part of the list above
compound | measurement | setting | value
Nc1ncnc2c1ncn2[C@@H]1O[C@H](COP(=O)(O)OP(=O)(O)NP(=O)(O)O)[C@@H](O)[C@H]1O [adenylyl imidodiphosphate] | NP40-soluble protein abundance | [2]; concentration: 8mM | 1.23 ± 0.025
same | NP40-soluble protein abundance | [2]; concentration: 10mM | 1.24 ± 0.072
